Experimental data: patent US20030100503A1
These are yes or no findings as the source states them, for the method shown. Some entries that bind do so weakly or less than the wild type. Where a sequence is shown, tags or fusion partners need not be part of it.

Key:
Conditions in all cases: remark: other sources report otherwise
[1] = molecular target: T1, recombinant His-tagged wild type murine Mts1/S100A4 protein (murine), P07091; test: size-exclusion chromatography, self-association
[2] = molecular target: T1, recombinant His-tagged wild type murine …; test: yeast two-hybrid, self-association (wt as reference)
[3] = molecular target: T1, recombinant His-tagged wild type murine …; test: dynamic light scattering, self-association at 1.5 mg/ml

binding [1]: binds | binding [2]: binds | binding [3]: binds
B1: recombinant His-tagged wild type murine Mts1/S100A4 protein, P07091 1-101 (protein, not shown: small tags and cut ends)
chain: MARPLEEALDVIVSTFHKYSGKEGDKFKLNKTELKELLTRELPSFLGKRTDEAAFQKVMSNLDSNRDNEVDFQEYCVFLSCIAMMCNEFFEGCPDKEPRKK
